These are yes or no findings as the source states them, for the method shown. Binding calls can cover weak binding; strength is not graded here.
Molecular target: T1, AgrA full length (AgrAFL) (Staphylococcus aureus) (UniProt P0A0I7)
T1 sequence: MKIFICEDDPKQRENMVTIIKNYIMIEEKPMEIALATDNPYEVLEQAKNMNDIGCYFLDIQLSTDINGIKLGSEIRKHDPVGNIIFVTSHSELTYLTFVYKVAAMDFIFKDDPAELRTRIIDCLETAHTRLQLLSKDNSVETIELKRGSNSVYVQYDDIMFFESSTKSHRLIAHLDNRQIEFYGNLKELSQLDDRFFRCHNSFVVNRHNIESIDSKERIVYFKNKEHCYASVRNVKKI
Test: BLI; AgrAFL (ligand) immobilised on amine reactive 2nd generation (AR2G) tips; AgrC proteins as analytes at different concentrations; 20 mM HEPES pH 7.6, 200 mM KCl, 2% glycerol; AgrC proteins incubated separately with 5 uM DTT and H2O2; Octet Data Analysis Software v 8.0; both purified

recombinant wild-type AgrC (cytosolic domain) (Staphylococcus aureus) (domain or fragment)
binding: binds
